The results in this text go back to patent US20060025326A1, “Method for treating carrier particles and its use” (LAB Pharma Oy, priority 2002, published 2006).

This series is described as follows: Microcalorimetric study of amorphous material. The format is physicochemical. Conditions: microcalorimetric study / detected in this work.

For the molecule `COc1ccc(CC(C)NCC(O)c2ccc(O)c(NC=O)c2)cc1` (stereo not shown) [formoterol], the “amorphous (unstable) material” value is “contains percents of amorphous material”.
